These are yes or no findings as the source states them, for the method shown. In cells and extracts the contact can be indirect. Some results given as binding are weak or reduced against the parent protein; the word gives no strength.
Target: NF-κB p65 RelA (mouse (endogenous in AML-12 and BMDMs)) (UniProt Q04207)
Assay: co-IP; AML-12 cells and BMDMs treated with genipin or vehicle (also genipin with GW9662), lysed in NP-40 buffer; p65 precipitated with anti-NF-kB p65/RelA mAb on Protein A/G magnetic beads; PPARγ detected by blot

Amino acid sequences for entries named in this document (tags omitted).
UniProt Q04207: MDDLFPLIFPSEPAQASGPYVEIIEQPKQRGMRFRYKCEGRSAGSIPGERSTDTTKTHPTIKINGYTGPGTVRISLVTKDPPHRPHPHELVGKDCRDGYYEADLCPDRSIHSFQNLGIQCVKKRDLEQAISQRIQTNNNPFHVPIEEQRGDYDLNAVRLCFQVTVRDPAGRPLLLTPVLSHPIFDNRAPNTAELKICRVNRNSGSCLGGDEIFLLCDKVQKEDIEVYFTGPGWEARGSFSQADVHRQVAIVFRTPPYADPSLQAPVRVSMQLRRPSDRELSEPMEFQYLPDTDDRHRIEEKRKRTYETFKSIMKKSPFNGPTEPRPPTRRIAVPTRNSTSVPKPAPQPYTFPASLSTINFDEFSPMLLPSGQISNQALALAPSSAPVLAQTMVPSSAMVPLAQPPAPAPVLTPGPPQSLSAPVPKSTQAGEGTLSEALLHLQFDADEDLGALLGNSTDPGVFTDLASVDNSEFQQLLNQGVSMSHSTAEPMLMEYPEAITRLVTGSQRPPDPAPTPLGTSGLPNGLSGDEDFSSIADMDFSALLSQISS
UniProt P37238: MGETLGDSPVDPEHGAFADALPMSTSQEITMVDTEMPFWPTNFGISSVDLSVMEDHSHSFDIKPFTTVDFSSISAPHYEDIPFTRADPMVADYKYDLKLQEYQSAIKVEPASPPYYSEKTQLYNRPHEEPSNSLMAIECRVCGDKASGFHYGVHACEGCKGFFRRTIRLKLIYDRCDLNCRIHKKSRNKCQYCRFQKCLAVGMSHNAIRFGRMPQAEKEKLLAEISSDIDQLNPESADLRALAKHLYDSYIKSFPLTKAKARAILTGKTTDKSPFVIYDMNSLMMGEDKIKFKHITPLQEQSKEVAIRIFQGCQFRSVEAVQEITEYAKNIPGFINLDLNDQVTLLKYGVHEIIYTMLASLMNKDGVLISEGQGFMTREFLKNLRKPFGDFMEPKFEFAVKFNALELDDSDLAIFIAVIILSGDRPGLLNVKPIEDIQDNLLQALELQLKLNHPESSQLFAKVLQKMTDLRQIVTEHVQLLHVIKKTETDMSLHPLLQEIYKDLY

PPARγ (from UniProt P37238 1-505)
binding: binds

— article PMC10620825
